According to the supplement of paper PMC12823440, “Inhibitors supercharge kinase turnover through native proteolytic circuits” (Nature, 2025):
This is one part of the list. Hit calls seldom repeat between salt and free forms of one compound.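 In K562 cells expressing nanoluciferase-fused kinases, luminescence was recorded at 4 h intervals between 2 and 18 h, normalized as percent of control with DMSO at 100% and a positive control at 0%. A significant (2 sigma) signal drop marks a time point as decreased. The authors' rule for a hit is not shown and takes in more than the number of time points.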

By UniProt entry, the sequences of proteins in these tests, tags left out. Where a name states a change or a piece, a line headed by the entry shows the natural chain unless it says otherwise.
UniProt P51451: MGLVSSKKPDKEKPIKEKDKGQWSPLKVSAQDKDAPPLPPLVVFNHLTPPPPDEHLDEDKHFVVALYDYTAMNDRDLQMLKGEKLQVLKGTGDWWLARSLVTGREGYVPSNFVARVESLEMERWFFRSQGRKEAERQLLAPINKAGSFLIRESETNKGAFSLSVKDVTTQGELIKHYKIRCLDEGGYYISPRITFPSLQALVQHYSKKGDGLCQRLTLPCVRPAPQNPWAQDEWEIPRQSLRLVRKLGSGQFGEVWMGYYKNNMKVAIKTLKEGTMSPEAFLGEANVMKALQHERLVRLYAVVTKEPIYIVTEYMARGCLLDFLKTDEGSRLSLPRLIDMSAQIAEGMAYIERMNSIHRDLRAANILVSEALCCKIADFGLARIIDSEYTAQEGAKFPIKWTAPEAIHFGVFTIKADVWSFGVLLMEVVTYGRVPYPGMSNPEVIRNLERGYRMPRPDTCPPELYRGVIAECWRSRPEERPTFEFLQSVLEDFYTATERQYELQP
UniProt P09619, whole entry: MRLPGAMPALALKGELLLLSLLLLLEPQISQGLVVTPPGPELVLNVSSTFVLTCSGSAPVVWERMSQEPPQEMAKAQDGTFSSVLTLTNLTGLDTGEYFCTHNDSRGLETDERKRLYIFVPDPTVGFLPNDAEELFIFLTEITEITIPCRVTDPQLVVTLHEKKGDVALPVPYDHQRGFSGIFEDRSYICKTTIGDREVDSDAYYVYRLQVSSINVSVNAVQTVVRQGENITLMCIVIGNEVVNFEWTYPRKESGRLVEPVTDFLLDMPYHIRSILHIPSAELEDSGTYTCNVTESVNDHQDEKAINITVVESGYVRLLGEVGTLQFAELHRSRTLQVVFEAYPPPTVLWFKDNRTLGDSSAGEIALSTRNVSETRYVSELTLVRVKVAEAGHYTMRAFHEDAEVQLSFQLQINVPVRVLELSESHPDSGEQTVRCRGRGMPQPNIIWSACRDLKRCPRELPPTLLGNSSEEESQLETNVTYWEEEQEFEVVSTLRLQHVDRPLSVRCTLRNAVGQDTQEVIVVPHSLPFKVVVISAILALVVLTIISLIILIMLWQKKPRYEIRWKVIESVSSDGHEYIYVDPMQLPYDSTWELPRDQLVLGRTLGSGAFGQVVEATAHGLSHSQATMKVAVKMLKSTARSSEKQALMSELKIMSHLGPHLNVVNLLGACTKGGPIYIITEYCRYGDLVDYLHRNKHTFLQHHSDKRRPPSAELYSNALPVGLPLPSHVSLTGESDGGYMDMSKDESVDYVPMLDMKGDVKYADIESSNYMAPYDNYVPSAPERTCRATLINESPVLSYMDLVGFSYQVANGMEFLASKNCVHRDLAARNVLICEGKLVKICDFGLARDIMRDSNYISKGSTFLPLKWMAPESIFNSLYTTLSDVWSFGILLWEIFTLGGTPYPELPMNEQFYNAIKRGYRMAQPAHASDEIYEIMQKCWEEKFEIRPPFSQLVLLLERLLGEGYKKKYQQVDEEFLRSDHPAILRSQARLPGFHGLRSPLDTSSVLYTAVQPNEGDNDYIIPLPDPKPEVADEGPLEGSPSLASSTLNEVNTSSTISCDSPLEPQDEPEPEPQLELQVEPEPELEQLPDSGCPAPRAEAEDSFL
UniProt Q00535, whole entry, looked up: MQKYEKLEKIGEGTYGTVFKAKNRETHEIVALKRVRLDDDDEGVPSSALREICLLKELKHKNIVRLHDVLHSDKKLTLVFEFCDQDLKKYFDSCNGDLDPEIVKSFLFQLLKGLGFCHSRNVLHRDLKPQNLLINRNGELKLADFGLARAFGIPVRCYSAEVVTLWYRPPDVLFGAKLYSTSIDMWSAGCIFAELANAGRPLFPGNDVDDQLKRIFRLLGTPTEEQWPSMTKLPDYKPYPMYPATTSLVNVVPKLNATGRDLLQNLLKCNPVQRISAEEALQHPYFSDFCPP
UniProt P21860, whole entry: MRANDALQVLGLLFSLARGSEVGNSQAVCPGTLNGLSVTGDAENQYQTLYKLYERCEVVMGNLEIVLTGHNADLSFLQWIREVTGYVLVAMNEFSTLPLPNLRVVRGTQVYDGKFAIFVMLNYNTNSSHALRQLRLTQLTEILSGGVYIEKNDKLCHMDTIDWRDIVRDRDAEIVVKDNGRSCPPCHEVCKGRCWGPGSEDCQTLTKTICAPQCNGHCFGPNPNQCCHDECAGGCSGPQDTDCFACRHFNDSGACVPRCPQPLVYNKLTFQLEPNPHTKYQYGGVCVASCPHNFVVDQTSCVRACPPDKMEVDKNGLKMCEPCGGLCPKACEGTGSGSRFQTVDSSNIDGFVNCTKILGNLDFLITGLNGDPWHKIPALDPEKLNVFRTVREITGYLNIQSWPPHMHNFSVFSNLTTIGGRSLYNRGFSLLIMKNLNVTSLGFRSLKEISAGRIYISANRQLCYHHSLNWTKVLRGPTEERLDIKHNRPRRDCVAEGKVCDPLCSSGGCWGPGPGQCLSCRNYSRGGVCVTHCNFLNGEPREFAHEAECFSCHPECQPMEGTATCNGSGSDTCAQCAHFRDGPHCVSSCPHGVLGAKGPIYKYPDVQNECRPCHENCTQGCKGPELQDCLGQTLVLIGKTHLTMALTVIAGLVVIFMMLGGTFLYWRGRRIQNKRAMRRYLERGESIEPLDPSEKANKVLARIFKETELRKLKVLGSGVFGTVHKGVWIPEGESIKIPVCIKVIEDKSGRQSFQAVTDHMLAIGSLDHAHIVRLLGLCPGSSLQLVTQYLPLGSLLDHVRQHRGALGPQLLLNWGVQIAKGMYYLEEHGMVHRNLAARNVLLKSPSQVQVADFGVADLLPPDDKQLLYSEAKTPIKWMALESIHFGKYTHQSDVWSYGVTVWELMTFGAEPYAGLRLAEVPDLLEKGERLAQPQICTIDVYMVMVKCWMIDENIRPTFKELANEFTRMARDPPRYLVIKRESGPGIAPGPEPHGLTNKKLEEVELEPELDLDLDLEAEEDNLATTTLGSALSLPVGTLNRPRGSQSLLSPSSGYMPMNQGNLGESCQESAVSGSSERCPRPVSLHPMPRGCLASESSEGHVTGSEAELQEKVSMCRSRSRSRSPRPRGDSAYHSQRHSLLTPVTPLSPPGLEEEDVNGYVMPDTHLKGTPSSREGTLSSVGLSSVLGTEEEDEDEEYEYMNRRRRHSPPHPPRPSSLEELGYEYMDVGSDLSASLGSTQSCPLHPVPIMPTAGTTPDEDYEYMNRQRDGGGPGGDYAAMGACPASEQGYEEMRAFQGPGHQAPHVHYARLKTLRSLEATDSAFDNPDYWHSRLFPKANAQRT
UniProt P42356, whole entry, looked up: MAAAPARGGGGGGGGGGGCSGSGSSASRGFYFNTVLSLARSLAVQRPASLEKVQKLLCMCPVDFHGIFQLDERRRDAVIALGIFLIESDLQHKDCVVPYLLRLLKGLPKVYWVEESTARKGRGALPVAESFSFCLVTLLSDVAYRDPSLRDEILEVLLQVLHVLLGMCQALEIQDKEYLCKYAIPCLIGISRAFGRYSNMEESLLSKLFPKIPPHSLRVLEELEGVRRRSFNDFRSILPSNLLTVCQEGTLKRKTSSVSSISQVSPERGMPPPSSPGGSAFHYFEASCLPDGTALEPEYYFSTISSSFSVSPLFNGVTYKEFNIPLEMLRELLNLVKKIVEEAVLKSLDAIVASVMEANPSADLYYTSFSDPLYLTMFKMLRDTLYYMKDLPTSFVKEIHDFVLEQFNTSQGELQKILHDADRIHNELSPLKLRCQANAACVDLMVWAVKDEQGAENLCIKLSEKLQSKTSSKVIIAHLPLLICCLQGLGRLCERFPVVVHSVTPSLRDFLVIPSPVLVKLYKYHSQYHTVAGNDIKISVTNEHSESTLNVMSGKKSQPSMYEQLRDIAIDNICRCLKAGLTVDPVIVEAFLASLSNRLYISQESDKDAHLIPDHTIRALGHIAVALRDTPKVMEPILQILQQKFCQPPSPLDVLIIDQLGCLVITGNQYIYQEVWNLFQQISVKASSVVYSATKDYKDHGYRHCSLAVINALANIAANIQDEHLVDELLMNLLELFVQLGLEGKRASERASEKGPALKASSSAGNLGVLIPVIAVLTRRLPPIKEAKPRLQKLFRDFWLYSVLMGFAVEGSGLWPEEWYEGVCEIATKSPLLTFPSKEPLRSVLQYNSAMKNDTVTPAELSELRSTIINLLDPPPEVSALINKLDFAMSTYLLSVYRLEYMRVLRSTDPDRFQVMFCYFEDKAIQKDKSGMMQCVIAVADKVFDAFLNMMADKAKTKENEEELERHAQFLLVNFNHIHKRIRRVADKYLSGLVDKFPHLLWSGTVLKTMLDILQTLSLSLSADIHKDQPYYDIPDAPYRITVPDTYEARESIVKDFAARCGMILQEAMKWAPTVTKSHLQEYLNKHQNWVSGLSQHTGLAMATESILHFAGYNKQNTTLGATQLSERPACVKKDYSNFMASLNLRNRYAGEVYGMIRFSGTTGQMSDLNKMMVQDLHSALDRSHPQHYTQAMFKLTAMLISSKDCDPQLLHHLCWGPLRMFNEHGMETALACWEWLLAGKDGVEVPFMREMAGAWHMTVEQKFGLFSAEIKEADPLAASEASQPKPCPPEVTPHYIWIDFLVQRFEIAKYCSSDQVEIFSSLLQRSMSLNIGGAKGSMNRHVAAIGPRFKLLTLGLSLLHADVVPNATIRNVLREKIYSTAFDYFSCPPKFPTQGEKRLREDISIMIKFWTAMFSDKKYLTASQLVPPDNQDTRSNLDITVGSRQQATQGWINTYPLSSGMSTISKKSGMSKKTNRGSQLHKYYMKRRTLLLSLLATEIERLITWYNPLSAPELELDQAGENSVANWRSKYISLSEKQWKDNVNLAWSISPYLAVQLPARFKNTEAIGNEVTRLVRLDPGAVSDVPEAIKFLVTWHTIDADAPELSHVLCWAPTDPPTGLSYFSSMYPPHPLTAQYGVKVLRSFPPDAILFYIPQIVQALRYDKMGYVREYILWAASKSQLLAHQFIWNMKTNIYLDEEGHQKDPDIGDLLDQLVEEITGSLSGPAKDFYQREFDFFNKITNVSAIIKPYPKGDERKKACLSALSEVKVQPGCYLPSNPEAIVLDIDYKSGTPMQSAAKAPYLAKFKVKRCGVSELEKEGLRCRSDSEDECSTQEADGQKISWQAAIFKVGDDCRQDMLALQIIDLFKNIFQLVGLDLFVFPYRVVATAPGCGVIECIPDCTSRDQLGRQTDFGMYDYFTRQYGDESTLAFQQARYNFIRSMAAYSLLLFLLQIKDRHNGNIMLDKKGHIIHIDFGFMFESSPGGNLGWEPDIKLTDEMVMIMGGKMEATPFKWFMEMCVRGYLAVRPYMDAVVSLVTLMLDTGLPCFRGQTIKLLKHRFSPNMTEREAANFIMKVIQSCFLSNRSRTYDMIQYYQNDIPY
UniProt Q14289, whole entry, looked up: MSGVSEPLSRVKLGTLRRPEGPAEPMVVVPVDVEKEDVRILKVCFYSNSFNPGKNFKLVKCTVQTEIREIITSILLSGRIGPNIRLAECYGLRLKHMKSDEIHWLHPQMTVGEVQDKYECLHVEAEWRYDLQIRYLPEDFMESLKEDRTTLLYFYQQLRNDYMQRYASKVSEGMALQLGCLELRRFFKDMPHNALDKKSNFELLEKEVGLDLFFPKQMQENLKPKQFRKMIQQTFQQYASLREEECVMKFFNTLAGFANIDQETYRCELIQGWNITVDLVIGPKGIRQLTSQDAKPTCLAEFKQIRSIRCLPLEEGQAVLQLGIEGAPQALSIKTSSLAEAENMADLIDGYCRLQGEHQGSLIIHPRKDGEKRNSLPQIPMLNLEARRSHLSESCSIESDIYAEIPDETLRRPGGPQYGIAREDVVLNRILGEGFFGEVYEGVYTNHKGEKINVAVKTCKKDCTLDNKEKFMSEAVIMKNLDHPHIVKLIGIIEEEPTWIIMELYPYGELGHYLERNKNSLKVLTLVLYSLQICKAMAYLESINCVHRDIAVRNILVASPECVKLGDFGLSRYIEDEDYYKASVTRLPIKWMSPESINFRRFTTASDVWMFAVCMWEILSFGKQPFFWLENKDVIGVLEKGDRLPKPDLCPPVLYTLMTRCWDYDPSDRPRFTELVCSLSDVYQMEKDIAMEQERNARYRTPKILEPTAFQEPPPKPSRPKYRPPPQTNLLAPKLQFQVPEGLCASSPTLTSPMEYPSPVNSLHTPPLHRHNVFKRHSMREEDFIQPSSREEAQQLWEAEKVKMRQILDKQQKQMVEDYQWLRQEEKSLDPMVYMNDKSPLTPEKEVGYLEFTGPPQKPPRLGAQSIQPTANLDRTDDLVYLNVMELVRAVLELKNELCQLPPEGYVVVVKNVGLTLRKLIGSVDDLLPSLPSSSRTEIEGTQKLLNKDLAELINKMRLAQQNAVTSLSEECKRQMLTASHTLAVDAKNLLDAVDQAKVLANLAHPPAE

Assays:
Assay in all cases: number of time points (of 5) at which kinase-Nluc abundance scored as decreased, DMSO-normalised (count); higher = more persistent destabilization
[1] = compound: CC(C)N(CCC(=O)c1ccc2ccccc2c1)Cc1ccccc1; conditions: 10 µM; K562; 2-18 h
[2] = compound: CC(C)[C@@](C)(O)[C@@H]1CN(c2nc(-c3[nH]nc4ncccc34)c(F)cc2Cl)CCN1; conditions: 10 µM; K562; 2-18 h
Torkinib = compound: CC(C)n1nc(-c2cc3cc(O)ccc3[nH]2)c2c(N)ncnc21 [Torkinib]; conditions: 2.5 µM; K562; 2-18 h
[3] = compound: CC1(C)C(=O)N([C@H]2CCc3c(O)cccc32)c2nc(Nc3cccc(CN4CCCC4)c3)ncc21; conditions: 2.5 µM; K562; 2-18 h
Motesanib (Diphosphate) = compound: CC1(C)CNc2cc(NC(=O)c3cccnc3NCc3ccncc3)ccc21 [Motesanib (Diphosphate)]; conditions: 2.5 µM; K562; 2-18 h
Motesanib = compound: CC1(C)CNc2cc(NC(=O)c3cccnc3NCc3ccncc3)ccc21 [Motesanib]; conditions: 2.5 µM; K562; 2-18 h
[4] = compound: CCCCCC1CC1CC1CC1CCCCCCCC(=O)OC; conditions: 10 µM; K562; 2-18 h
[5] = compound: CCCCCCCCCCCCc1ccc(S(=O)(=O)Nc2nncs2)cc1; conditions: 10 µM; K562; 2-18 h
[6] = compound: CCCOc1ccc(C=C2SC(=O)NC2=O)cc1; conditions: 10 µM; K562; 2-18 h
Sunitinib = compound: CCN(CC)CCNC(=O)c1c(C)[nH]c(/C=C2\C(=O)Nc3ccc(F)cc32)c1C [Sunitinib]; conditions: 2.5 µM; K562; 2-18 h

Measured: number of time points

FGR (UniProt P09769)
0: all assays above

STK24 (UniProt Q9Y6E0)
0: all assays above

IRAK3 (UniProt Q9Y616)
3: [3]
0: all other assays above

MKNK1 (UniProt Q9BUB5)
3: [3]
0: all other assays above

YES1 (UniProt P07947)
2: [3]
0: all other assays above

CDK3 (UniProt Q00526)
0: all assays above

BLK (UniProt P51451)
1: Sunitinib
3: [3]
0: all other assays above

PDGFRB (UniProt P09619)
3: [3]
1: [2]
0: all other assays above

JAK1 (UniProt P23458)
1: [3]
0: all other assays above

ZAK (UniProt Q9NYL2)
not listed: Sunitinib
0: all other assays above

AURKC (UniProt Q9UQB9)
0: all assays above

ARAF (UniProt P10398)
0: all assays above

NTRK3 (UniProt Q16288)
2: [2]
3: [3]
not listed: Sunitinib
0: all other assays above

CSNK1A1 (UniProt P48729)
not listed: Sunitinib
0: all other assays above

SYK (UniProt P43405)
not listed: Sunitinib
0: all other assays above

FGFR2 (UniProt P21802)
3: [2] | [3]
0: all other assays above

CDK5 (UniProt Q00535)
not listed: Sunitinib
0: all other assays above

CDK2 (UniProt P24941)
not listed: Sunitinib
0: all other assays above

PTK2 (UniProt Q05397)
2: [3]
5: [4]
1: [2] | Torkinib
not listed: Sunitinib
0: all other assays above

ULK3 (UniProt Q6PHR2)
3: [3]
0: all other assays above

MAP4K2 (UniProt Q12851)
0: all assays above

CAMK2A (UniProt Q9UQM7)
0: all assays above

CSNK1D (UniProt P48730)
0: all assays above

MAPK1 (UniProt P28482)
0: all assays above

SPHK1 (UniProt Q9NYA1)
0: all assays above

MAPKAPK2 (UniProt P49137)
0: all assays above

CDK10 (UniProt Q15131)
0: all assays above

RIPK1 (UniProt Q13546)
2: Torkinib
0: all other assays above

MAP2K2 (UniProt P36507)
0: all assays above

ERBB3 (UniProt P21860)
3: [3]
4: Torkinib
0: all other assays above

PAK4 (UniProt O96013)
0: all assays above

DYRK1B (UniProt Q9Y463)
1: [3]
0: all other assays above

PIK4CA (UniProt P42356)
2: [3]
0: all other assays above

PDPK1 (UniProt O15530)
2: Torkinib
0: all other assays above

AURKB (UniProt Q96GD4)
3: [3] | Sunitinib
4: Torkinib
0: all other assays above

PBK (UniProt Q96KB5)
0: all assays above

MAPK4 (UniProt P31152)
0: all assays above

GSK3A (UniProt P49840)
0: all assays above

TYK2 (UniProt P29597)
3: [2]
2: [3]
1: Torkinib
0: all other assays above

DYRK2 (UniProt Q92630)
4: [3]
0: all other assays above

STK38 (UniProt Q15208)
1: [2]
0: all other assays above

PTK2B (UniProt Q14289)
2: [3]
0: all other assays above

RPS6KA1 (UniProt Q15418)
0: all assays above

RIOK1 (UniProt Q9BRS2)
3: [3]
0: all other assays above

BRAF_V600E
2: [3]
0: all other assays above
